Assay results: paper PMC4752301
These are yes or no findings as the source states them, for the method shown. In cells and extracts the contact can be indirect. Some entries that bind do so weakly or less than the wild type. Tags and fused reporters may be left off the sequences shown.

By UniProt entry, the sequences of proteins in these tests, tags left out.
UniProt P02792: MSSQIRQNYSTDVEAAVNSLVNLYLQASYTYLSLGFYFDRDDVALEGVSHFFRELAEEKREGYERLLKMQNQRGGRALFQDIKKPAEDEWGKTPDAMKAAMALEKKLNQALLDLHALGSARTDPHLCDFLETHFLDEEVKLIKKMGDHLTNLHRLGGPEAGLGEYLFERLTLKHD

Target: T1, flag-Gadd45a (human) (UniProt P24522)
T1 sequence: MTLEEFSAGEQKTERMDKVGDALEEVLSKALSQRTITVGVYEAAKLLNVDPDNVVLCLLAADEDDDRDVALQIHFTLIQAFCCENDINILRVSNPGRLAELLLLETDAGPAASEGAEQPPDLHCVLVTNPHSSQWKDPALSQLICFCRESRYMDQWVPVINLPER
Test: co-IP; HEK 293T cells co-transfected with myc-FTL and flag-Gadd45a; lysis in 25 mM Tris-HCl pH 7.5, 150 mM NaCl, 0.5% Nonidet P-40; mutual IP with anti-myc or anti-flag antibody (control IgG), 4°C overnight, Protein G Plus-Agarose; blots with anti-myc and anti-flag

Substance: myc-FTL (ferritin light chain) (from UniProt P02792 1-175)
- binding: binds
